Reference: PMC11323535
These are yes or no findings as the source states them, for the method shown. Some binding calls cover weakened binding; strength is not graded here. Sequences can lack the tags named with a protein.

Amino acid sequences for entries named in this document (tags omitted). A change or cut given only in a name is not applied to a line headed by its entry. Residues count along the entry.
UniProt Q8KH85: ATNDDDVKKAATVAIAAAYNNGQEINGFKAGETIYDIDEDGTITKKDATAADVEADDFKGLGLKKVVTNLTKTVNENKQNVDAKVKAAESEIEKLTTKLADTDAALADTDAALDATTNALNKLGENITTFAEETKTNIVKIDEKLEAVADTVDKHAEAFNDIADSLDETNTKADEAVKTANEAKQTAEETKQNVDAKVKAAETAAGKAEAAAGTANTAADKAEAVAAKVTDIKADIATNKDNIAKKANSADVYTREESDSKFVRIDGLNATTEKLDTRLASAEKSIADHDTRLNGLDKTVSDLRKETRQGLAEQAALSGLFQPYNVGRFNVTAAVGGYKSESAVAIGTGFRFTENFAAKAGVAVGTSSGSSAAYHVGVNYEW
recombinant soluble NadA (NadA_(24–350)): residues 1-327 of Q8KH85
NadA_(24–170): residues 1-147 of Q8KH85

Legend:
[1] = molecular target: recombinant soluble NadA (NadA_(24–350)) (Neisseria meningitidis strain 2996) (UniProt Q8KH85); assay: HDX-MS; rNadA alone or with Siglec-5 (NadA:Siglec-5 1:3.8), 30 min preincubation; deuterium labelling in PBS at room temperature (15 s-1,000 min) and on ice (4 s-1 min); both purified
[2] = molecular target: NadA_(24–170) (Neisseria meningitidis strain 2996) (UniProt Q8KH85); assay: SPR; binding analysis, Biacore 8K; NadA ectodomain, head domain or stalk domain amine-coupled on CM5; Fc-tagged Siglecs injected at 100 nM, 25°C, HSB-EP+ (10 mM HEPES pH 7.4, 0.15 M NaCl, 3 mM EDTA, 0.005% P20); both purified
[3] = molecular target: recombinant soluble NadA (NadA_(24–350)) (Neisseria meningitidis strain 2996) (UniProt Q8KH85); assay: as above

B1: Fc tagged recombinant human Siglec-5 (Fc fusion, UniProt O15389 17-441)
chain: EKPVYELQVQKSVTVQEGLCVLVPCSFSYPWRSWYSSPPLYVYWFRDGEIPYYAEVVATNNPDRRVKPETQGRFRLLGDVQKKNCSLSIGDARMEDTGSYFFRVERGRDVKYSYQQNKLNLEVTALIEKPDIHFLEPLESGRPTRLSCSLPGSCEAGPPLTFSWTGNALSPLDPETTRSSELTLTPRPEDHGTNLTCQMKRQGAQVTTERTVQLNVSYAPQTITIFRNGIALEILQNTSYLPVLEGQALRLLCDAPSNPPAHLSWFQGSPALNATPISNTGILELRRVRSAEEGGFTCRAQHPLGFLQIFLNLSVYSLPQLLGPSCSWEAEGLHCRCSFRARPAPSLCWRLEEKPLEGNSSQGSFKVNSSSAGPWANSSLILHGGLSSDLKVSCKAWNIYGSQSGSVLLLQGRSNLGTGVVPAAL
binding [1]: binds | binding [2]: binds | binding [3]: binds

B2: Fc tagged recombinant human Siglec-14 (Fc fusion, UniProt Q08ET2 17-358)
chain: EKPVYELQVQKSVTVQEGLCVLVPCSFSYPWRSWYSSPPLYVYWFRDGEIPYYAEVVATNNPDRRVKPETQGRFRLLGDVQKKNCSLSIGDARMEDTGSYFFRVERGRDVKYSYQQNKLNLEVTALIEKPDIHFLEPLESGRPTRLSCSLPGSCEAGPPLTFSWTGNALSPLDPETTRSSELTLTPRPEDHGTNLTCQVKRQGAQVTTERTVQLNVSYAPQNLAISIFFRNGTGTALRILSNGMSVPIQEGQSLFLACTVDSNPPASLSWFREGKALNPSQTSMSGTLELPNIGAREGGEFTCRVQHPLGSQHLSFILSVQRSSSSCICVTEKQQGSWPLVL
binding [2]: binds | binding [3]: binds
